Drawing on publication PMC6620326, “Structural characterization of life-extending Caenorhabditis elegans Lipid Binding Protein 8” (Scientific Reports, 2019), this text covers binding for 1 molecule.

Results are given in words; binding and its absence hold for the method and conditions named.

The target of the assay is Caenorhabditis elegans Lipid Binding Protein 8 (LBP-8), wild type, full length (Caenorhabditis elegans) (UniProt O02324). The assay is described as follows: SEC; HiLoad 16/60 Superdex 75 column, compared with gel filtration standards; 20 mM Tris HCl pH 7.4, 150 mM NaCl, 5% glycerol; both purified.

B1: Caenorhabditis elegans Lipid Binding Protein 8 (LBP-8), wild type, full length (protein, UniProt O02324 1-137)
chain: MVSMKEFIGRWKLVHSENFEEYLKEIGVGLLIRKAASLTSPTLEIKLDGDTWHFNQYSTFKNNKLAFKIREKFVEIAPDERSYNTLVTFENGKFISHQDKIKENHHSSVFTTWLENGKLLQTYQSGSVICRREFVKE
As for B1, the binding entry was “no binding”.
